PubChem BioAssay AID1671195 | Yale University – 2021

- Aim: 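Knockdowns that increase or decrease uptake of fluorescent LDL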 (primary screen)
- Cell system: human Huh7 hepatoma cells
- Reagents: siRNA pool against human genes, 18 nM
- Time to read-out: about 2 to 2.5 days of knockdown, then 8 h LDL uptake
- Challenge: DiI-labelled LDL at 30 µg/ml for 8 h, in lipoprotein-deficient serum medium
- Measurement: 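Per-cell DiI-LDL intensity by automated imaging; well means scaled to the plate median and given as a robust z-score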
- Reading the numbers: robust z-score: higher = more LDL uptake after knockdown
- Rule for the call: 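Active when two or more replicates show a robust z-score above 2 or below -2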
In all, the deposit lists about 22,000 reagents; this is a part drawn at random. Of all reagents, about 1,510 (6.9%) were called active. 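Active includes knockdowns raising or lowering LDL uptake; positive z-scores mean more uptake, negative mean less.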 Unmarked entries are inactive. Reagents against one gene are numbered here. Reagent sequences are not shown.

NUDT18 (nudix hydrolase 18) → robust z-score, replicate 1: 2.33 (active); robust z-score, replicate 2: 2.44; robust z-score, replicate 3: 2.27
ZNF812P (zinc finger protein 812, pseudogene) → robust z-score, replicate 1: 1.08; robust z-score, replicate 2: 0.846; robust z-score, replicate 3: 1.17
LRRC58 (leucine rich repeat containing 58) → robust z-score, replicate 1: 0.502; robust z-score, replicate 2: 1.75; robust z-score, replicate 3: 1.18
ARSG (arylsulfatase G) → robust z-score, replicate 1: -0.445; robust z-score, replicate 2: -0.616; robust z-score, replicate 3: -0.323
LINC00683 (long intergenic non-protein coding RNA 683) → robust z-score, replicate 1: 0.0208; robust z-score, replicate 2: -0.336; robust z-score, replicate 3: -0.765
UBB (ubiquitin B) → robust z-score, replicate 1: -1.78; robust z-score, replicate 2: 0.609; robust z-score, replicate 3: -2.25
ESF1 (ESF1 nucleolar pre-rRNA processing protein) → robust z-score, replicate 1: 1.46; robust z-score, replicate 2: 0.955; robust z-score, replicate 3: 2.45
LSM7 → robust z-score, replicate 1: -1.14; robust z-score, replicate 2: -0.951; robust z-score, replicate 3: -0.757
PTPN22 (protein tyrosine phosphatase non-receptor type 22) → robust z-score, replicate 1: -1.17; robust z-score, replicate 2: -0.964; robust z-score, replicate 3: -1.1
PTBP2 (polypyrimidine tract binding protein 2) → robust z-score, replicate 1: -0.789; robust z-score, replicate 2: -0.398; robust z-score, replicate 3: -0.734

2 entries from above, reduced to “robust z-score, replicate 1”.
PTPN22 (protein tyrosine phosphatase non-receptor type 22)	-1.17
PTBP2 (polypyrimidine tract binding protein 2)	-0.789

The results go on.
LOC387654 (retired record) → robust z-score, replicate 1: 0.16; robust z-score, replicate 2: -0.132; robust z-score, replicate 3: -0.103
XBP1 (X-box binding protein 1) → robust z-score, replicate 1: 0.951; robust z-score, replicate 2: 1.14; robust z-score, replicate 3: -0.207
NOX1 (NADPH oxidase 1) → robust z-score, replicate 1: 0.517; robust z-score, replicate 2: 0.797; robust z-score, replicate 3: 1.46
CLEC10A (C-type lectin domain containing 10A) → robust z-score, replicate 1: 0.299; robust z-score, replicate 2: 1.63; robust z-score, replicate 3: -0.623
ASMTL (acetylserotonin O-methyltransferase like) → robust z-score, replicate 1: -1.07; robust z-score, replicate 2: -0.545; robust z-score, replicate 3: -1.3
LOC149913 (retired record) → robust z-score, replicate 1: 0.286; robust z-score, replicate 2: -0.148; robust z-score, replicate 3: 0.658
GRINA → robust z-score, replicate 1: -0.311; robust z-score, replicate 2: -0.471; robust z-score, replicate 3: 0.334
HID1 (HID1 domain containing) → robust z-score, replicate 1: 1.06; robust z-score, replicate 2: 0.564; robust z-score, replicate 3: 0.724
ZFPM2 (zinc finger protein, FOG family member 2) → robust z-score, replicate 1: 0.192; robust z-score, replicate 2: -0.0307; robust z-score, replicate 3: 0.0828
DNAJA2 (DnaJ heat shock protein family (Hsp40) member A2) → robust z-score, replicate 1: 0.371; robust z-score, replicate 2: 0.725; robust z-score, replicate 3: 0.241
OR9A4 (olfactory receptor family 9 subfamily A member 4) → robust z-score, replicate 1: 1.74; robust z-score, replicate 2: -0.322; robust z-score, replicate 3: 0.543
MTCL2 (microtubule crosslinking factor 2) #1 → robust z-score, replicate 1: 2.08 (active); robust z-score, replicate 2: 1.91; robust z-score, replicate 3: 0.726
MTCL2 (microtubule crosslinking factor 2) #2 → robust z-score, replicate 1: 1.21; robust z-score, replicate 2: 1.22; robust z-score, replicate 3: 0.398
LOC441031 (retired record) → robust z-score, replicate 1: 0.61; robust z-score, replicate 2: 0.906; robust z-score, replicate 3: 1.12
